Some of the results follow. Further columns of the screen follow, without active or inactive calls. The list favours compounds with an active or inconclusive main result. Words in brackets tell the shape of the fitted curve; partial curves, single points and poor fits give uncertain potencies.
Assay: qHTS Assay for Lipid Storage Modulators in Drosophila S3 Cells;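 on cell number change: cells counted by Cell Tracker Red CMTPX staining in the red channel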
Settings: BODIPY lipid droplet fluorescence, 18-24 h; for cell number change: measured here: cell count max response, cells fed with added oleic acid
Method in brief: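 Drosophila S3 cells got compounds at several concentrations plus oleic acid (400 uM solution). Laser-scanning cytometry with 488 nm excitation read lipid droplets at 500-530 nm and cells at 575-640 nm. Percent activity was relative to 20 uM Triacsin C.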

[1] = measured here: lipid fluorescence (Fed channel) AC50, cells fed with added oleic acid
[2] = measured here: cell number channel AC50, cells fed with added oleic acid

SMILES | cell number change | AC50 [1] | AC50 [2]
O=C(CSc1nnc(-c2ccccc2F)o1)OCc1ccccc1 | -22.7% | 0.184 µM [falling, full curve] | –
CCCSc1nc2c(cnn2-c2ccc(Cl)cc2)c(=O)[nH]1 | – | 1.03 µM [rising, full curve] | –
Cc1cc(NC(=O)Cn2nnc(-c3ccccc3N)n2)no1 | 4.61% | 29.1 µM [rising, single point] | –
Cc1ccc(NC(=O)C(Nc2cccc(C)c2)c2ccccc2)cc1 (configuration not stated) | – | 1.46 µM [rising, partial curve, poor fit] | –
Cc1c(N(C(=O)c2cc(=O)[nH]c3ccccc23)C(C)C)c(=O)n(-c2ccccc2)n1C | -25% | 0.00651 µM [falling, full curve, poor fit] | –
O=C(CSc1nnc(CNc2ccc(F)cc2)o1)OC1CCCCC1 | -4.75% | – | –
COC1(c2cc(-c3ccccc3)nc(N)n2)CCCCC1 | 22.7% | 29.1 µM [rising, single point] | 0.0058 µM [rising, full curve, poor fit]
c1ccc2c(-c3nc4ncccc4o3)cccc2c1 | 0.919% | 6.51 µM [rising, partial curve, poor fit] | –
O=C(Nc1cccnc1)OC1CCCCC1 | 42.1% | – | 3.66 µM [rising, full curve]
O=C(NNC(=O)c1cccs1)c1ccc(Br)cc1 | 8.26% | – | –
Cc1ccc(NC(=O)C(C)N2C(=O)c3ccccc3C2=O)nc1 (configuration not stated) | -5.88% | 4.11 µM [falling, partial curve] | 0.58 µM [falling, full curve]
Cc1ccc(C(C(=O)NC2CCCC2)N(Cc2ccccc2)C(=O)c2csnn2)o1 (configuration not stated) | -32.4% | – | 23.1 µM [falling, single point]
N#Cc1ccc(COc2ccc(CCO)cc2-n2nc3ccccc3n2)cc1 | 0.0678% | – | –
Cc1cccc(NC(=O)Cn2c(=O)n(CCc3c[nH]c4ccccc34)c(=O)c3cccnc32)c1 | -15% | 0.58 µM [rising, full curve] | –
CSCC[C@@H](C(=O)O)N1Cc2ccccc2C1=O | 22.5% | – | –
O=C(Nc1cccc(O)c1)c1cnn2cccnc12 | 58.7% | – | –
CCOc1ccc(-c2cc(C(=O)NN)[nH]n2)cc1 | -3.61% | 1.84 µM [rising, full curve] | –
COc1ccc(S(=O)(=O)N(CC(=O)O)c2ccccc2)cc1 | -27.7% | 0.116 µM [falling, full curve, poor fit] | –
CCCn1cnc2cc(NCc3cccc(OC)c3O)ccc21 | -22.2% | 0.00651 µM [falling, full curve, poor fit] | 0.116 µM [falling, full curve, poor fit]
COc1ccc(OCC(O)CNC(=O)Nc2ccc(F)cc2)cc1 (configuration not stated) | -13.1% | 25.9 µM [falling, single point] | –
Cc1ccccc1CC1(CO)CCCN(C(=O)CCC(F)(F)F)C1 (configuration not stated) | – | 6.51 µM [falling, single point] | –

SMILES | cell number change | AC50 [1] | AC50 [2]
O=C(O)c1cccc(-c2noc(-c3cccc(Cl)c3)n2)c1 | -0.906% | – | –
COc1ccccc1CNc1ccc(C(=O)O)cc1 | 2.53% | – | –
CCOC(=O)N1CCN(C2CC(=O)N(c3ccc(C)cc3)C2=O)CC1 (configuration not stated) | 5.86% | – | –
Cc1ccc(C)c(OCCCCN2CCCCC2)c1 | -10.5% | – | –
Cc1c(Cl)ccc2c1NC(=O)[C@]21N[C@@H](CCC(N)=O)[C@H]2C(=O)N(c3ccc(F)cc3)C(=O)[C@H]21 | 2.74% | 6.51 µM [falling, single point] | 4.11 µM [falling, single point]
C=CCn1c(N)cc(=O)nc1SCC(=O)Nc1ccccc1 | 6.87% | 0.58 µM [falling, full curve] | –
O=C(COC(=O)COc1cccc(Br)c1)Nc1ccc(F)cc1F | 6.97% | 7.31 µM [falling, single point] | –
NC(=O)CSc1nccn1Cc1ccc(Cl)cc1 | -8.62% | 0.651 µM [falling, full curve] | 0.461 µM [falling, full curve, poor fit]
O=C(O)c1cc(N/N=C/c2ccc(N3CCOCC3)s2)ccc1Cl | -50% | – | 32.6 µM [falling, partial curve, poor fit]
Cc1cc(NC(=O)Cn2c(=O)n(CCCCC(=O)NC3CCN(Cc4ccccc4)CC3)c(=O)c3ccccc32)n[nH]1 | -42.7% | 29.1 µM [falling, single point] | 25.9 µM [falling, single point]
CCOC(=O)N1CCC(N2CCN(c3cc(C)ccc3C)CC2)CC1 | 84.7% | – | 16.4 µM [rising, partial curve]
CN1CCN(C(=S)c2cn(Cc3ccccc3F)c3ccccc23)CC1 | 18.3% | – | –
COc1ccc(N2CCN(C(CNC(=O)C(=O)NCC(OC)OC)c3ccco3)CC2)cc1 (configuration not stated) | 4.28% | – | –
Cc1ccnn1Cc1cc(C(=O)O)c2ccccc2n1 | 1.19% | – | 4.11 µM [falling, partial curve]
Cc1ccc(NC(=O)c2noc3c2CCc2ccccc2-3)cc1 | 93.5% | 23.1 µM [rising, partial curve] | 1.84 µM [rising, full curve]
O=C(CSc1nnnn1Cc1ccccc1)NC1CCCCC1 | -35.3% | – | 2.91 µM [falling, single point]
Cc1ccccc1NS(=O)(=O)c1ccc(NC(=O)N2CCCCC2)cc1 | -46.4% | – | 25.9 µM [falling, partial curve]
CCOC(=O)c1c(CC(C)C)csc1NC=O | -66.7% | 6.51 µM [rising, single point] | 14.6 µM [falling, partial curve]
CN([C@@H](C(=O)OC(C)(C)C)c1ccccc1)S(=O)(=O)c1cccc(S(=O)(=O)N(C)[C@@H](C(=O)OC(C)(C)C)c2ccccc2)c1 | 73.8% | – | 20.6 µM [rising, partial curve]
Cc1cc(C(=O)OCC(=O)Nc2cc(S(=O)(=O)N(C)C)ccc2C)c(C)o1 | -56.8% | 18.4 µM [falling, partial curve] | 20.6 µM [falling, single point]

A few values from the results shown.
AC50 [1], Cc1cc(NC(=O)Cn2nnc(-c3ccccc3N)n2)no1 reads 29.1 µM [rising, single point]
AC50 [1], O=C(CSc1nnc(-c2ccccc2F)o1)OCc1ccccc1 reads 0.184 µM [falling, full curve]
